The list shows a part of the results.
Tests used:
Assay in all cases: log2 fold change, soluble protein after heating vs DMSO (PISA); higher = thermal stabilisation; K562 cells, 10 uM, 30 min; active = over 0.2 and 3.5 SD of the protein, either way, in both replicates (recomputed)
[1] = compound: C1=CC=C(C=C1)[C@H](COC2=CC3=C(C=C2)NC(=O)N3)NC(=O)C4=CC=CN(C4=O)CC5=CC(=C(C=C5)F)F
How it was run: (§1)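 Values are thermal stability changes relative to control samples and are taken from duplicates. They are stated as log2 fold changes. Before quantification by TMTpro 16plex LC-MS/MS with equalised channel sums, K562 cells at 2×10^6 cells/mL were treated with 10 μM compound for 30 min, heated in aliquots for 3 min across 48°C-58°C, pooled, extracted in PBS with 0.5% NP-40 at 4°C, and centrifuged at 21,000xg for 90 min to give the soluble supernatant.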

The chains behind the UniProt entries cited, without tags or fusion partners. Where a name states a change or a piece, a line headed by the entry shows the natural chain unless it says otherwise.
UniProt O75387: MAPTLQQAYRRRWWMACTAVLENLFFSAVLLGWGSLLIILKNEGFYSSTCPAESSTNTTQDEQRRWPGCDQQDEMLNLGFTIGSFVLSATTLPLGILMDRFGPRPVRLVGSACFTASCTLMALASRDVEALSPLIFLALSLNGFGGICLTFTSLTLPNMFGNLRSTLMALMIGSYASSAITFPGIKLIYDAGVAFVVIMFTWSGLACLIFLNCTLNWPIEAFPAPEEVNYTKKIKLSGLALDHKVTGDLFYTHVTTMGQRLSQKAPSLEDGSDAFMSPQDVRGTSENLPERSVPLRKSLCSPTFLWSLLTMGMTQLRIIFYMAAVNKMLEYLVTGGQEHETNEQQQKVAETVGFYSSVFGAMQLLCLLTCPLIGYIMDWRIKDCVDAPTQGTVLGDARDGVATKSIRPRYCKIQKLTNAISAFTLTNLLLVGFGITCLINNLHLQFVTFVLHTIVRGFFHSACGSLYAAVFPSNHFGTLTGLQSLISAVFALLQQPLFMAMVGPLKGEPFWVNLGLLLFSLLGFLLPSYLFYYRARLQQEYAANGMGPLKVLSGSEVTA
UniProt Q6ZP29: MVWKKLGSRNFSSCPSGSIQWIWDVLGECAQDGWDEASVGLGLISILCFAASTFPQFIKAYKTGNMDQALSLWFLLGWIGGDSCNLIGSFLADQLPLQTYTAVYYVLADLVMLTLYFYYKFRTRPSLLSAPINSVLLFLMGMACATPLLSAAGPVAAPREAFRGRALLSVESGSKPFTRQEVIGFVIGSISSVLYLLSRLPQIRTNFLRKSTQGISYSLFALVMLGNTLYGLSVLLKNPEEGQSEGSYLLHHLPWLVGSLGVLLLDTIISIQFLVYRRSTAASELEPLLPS
UniProt Q14542: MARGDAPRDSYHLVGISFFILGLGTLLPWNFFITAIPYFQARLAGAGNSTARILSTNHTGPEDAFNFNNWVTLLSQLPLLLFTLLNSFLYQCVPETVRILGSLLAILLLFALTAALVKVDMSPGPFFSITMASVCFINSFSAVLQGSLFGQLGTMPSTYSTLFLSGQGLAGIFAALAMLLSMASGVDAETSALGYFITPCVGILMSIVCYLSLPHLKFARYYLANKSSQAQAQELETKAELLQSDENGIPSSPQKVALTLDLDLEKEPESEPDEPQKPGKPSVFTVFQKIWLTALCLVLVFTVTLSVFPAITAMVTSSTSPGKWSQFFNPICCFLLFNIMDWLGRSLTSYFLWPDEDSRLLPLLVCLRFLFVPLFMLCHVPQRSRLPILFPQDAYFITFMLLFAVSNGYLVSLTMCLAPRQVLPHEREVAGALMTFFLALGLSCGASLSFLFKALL
UniProt Q8WUX1, whole entry, looked up: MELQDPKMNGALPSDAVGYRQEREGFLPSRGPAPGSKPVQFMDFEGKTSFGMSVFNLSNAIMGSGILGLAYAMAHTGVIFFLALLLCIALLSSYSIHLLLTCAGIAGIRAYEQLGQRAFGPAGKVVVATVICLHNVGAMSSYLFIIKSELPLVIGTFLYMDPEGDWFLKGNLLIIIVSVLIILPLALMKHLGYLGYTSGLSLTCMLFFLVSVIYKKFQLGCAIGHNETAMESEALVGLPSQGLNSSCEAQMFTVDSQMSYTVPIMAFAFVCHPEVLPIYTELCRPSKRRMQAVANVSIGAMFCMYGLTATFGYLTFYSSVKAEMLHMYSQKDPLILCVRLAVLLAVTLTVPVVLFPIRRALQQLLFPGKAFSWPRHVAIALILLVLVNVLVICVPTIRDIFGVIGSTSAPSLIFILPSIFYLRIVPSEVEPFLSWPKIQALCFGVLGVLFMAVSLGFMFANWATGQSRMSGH
UniProt Q9Y2D2: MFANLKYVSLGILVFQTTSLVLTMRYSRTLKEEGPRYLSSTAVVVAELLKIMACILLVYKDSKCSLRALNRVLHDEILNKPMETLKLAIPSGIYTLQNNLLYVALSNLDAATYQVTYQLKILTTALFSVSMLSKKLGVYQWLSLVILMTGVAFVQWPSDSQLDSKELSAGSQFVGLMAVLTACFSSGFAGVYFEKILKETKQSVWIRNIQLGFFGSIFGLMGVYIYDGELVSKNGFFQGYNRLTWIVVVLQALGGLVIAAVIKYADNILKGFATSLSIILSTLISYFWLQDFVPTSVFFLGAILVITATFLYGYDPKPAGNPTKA
UniProt Q8N2U9: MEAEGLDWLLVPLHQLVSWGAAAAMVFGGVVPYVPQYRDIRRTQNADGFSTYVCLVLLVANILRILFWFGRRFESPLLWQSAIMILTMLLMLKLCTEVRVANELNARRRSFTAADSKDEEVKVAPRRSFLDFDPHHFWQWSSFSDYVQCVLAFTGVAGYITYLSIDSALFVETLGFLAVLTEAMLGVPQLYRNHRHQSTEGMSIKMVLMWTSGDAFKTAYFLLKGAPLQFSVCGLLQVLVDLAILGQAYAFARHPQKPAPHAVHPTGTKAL
UniProt P08195: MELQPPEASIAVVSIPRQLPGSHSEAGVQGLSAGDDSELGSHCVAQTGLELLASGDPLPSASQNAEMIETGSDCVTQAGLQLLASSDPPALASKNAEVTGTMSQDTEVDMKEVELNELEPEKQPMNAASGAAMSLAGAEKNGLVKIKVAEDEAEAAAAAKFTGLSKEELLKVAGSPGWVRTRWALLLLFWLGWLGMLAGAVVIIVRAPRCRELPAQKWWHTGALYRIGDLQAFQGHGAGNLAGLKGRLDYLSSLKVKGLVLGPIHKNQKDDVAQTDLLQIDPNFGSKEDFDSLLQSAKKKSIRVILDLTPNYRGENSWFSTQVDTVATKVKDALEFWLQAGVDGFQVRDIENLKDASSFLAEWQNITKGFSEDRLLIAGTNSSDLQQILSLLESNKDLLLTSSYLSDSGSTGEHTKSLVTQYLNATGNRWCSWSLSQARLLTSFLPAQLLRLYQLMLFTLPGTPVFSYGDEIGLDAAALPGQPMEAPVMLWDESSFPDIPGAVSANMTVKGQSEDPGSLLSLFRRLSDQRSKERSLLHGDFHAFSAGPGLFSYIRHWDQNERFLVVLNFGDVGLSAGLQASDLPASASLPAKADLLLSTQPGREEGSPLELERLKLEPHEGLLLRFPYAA
UniProt Q9H2D1: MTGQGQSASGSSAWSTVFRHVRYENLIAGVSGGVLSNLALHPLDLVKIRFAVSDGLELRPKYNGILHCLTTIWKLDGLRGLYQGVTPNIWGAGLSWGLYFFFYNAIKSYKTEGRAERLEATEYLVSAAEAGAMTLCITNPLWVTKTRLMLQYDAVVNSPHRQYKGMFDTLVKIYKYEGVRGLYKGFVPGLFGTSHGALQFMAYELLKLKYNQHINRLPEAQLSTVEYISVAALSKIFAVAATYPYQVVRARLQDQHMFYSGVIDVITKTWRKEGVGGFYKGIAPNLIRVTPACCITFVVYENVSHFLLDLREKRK
UniProt Q96EP9: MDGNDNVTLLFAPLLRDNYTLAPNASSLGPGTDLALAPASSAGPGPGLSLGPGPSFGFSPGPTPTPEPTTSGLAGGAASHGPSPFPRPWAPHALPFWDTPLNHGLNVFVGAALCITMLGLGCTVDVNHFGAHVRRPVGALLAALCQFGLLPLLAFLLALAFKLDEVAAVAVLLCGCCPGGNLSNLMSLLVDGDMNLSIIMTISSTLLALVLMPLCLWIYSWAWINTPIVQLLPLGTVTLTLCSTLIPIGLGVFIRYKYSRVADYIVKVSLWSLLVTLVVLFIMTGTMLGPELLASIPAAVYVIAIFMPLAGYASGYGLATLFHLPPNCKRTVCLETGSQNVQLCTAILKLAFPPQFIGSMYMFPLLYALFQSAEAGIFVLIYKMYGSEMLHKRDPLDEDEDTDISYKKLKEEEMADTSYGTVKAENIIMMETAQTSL
UniProt Q6NUK1: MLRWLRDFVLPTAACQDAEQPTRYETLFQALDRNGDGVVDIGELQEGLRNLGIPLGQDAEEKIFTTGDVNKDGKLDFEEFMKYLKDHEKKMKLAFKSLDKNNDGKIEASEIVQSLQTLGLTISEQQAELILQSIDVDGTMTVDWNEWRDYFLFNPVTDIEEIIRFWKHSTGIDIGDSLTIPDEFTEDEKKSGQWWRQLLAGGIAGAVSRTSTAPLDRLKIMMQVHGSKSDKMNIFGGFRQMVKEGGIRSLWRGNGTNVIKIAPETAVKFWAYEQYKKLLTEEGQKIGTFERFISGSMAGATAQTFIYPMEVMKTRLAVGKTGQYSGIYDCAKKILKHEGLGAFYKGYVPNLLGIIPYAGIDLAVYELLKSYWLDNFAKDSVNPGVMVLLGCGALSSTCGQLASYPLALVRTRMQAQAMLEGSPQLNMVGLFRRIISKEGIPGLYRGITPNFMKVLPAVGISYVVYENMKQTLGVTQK
UniProt P43007: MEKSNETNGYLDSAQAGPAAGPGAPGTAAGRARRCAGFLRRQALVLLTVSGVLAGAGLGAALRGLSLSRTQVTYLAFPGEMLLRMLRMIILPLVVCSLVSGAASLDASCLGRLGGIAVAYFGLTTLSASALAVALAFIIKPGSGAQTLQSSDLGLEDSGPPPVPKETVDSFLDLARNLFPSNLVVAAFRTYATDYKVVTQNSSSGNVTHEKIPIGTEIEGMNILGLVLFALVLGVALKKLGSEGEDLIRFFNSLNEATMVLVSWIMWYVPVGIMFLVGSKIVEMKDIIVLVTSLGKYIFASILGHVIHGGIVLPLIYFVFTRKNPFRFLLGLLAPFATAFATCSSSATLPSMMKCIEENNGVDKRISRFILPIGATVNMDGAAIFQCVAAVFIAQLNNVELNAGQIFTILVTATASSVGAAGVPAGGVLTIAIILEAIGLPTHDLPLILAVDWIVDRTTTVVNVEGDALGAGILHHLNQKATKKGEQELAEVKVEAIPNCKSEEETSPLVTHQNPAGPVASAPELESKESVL
UniProt Q9Y6M7: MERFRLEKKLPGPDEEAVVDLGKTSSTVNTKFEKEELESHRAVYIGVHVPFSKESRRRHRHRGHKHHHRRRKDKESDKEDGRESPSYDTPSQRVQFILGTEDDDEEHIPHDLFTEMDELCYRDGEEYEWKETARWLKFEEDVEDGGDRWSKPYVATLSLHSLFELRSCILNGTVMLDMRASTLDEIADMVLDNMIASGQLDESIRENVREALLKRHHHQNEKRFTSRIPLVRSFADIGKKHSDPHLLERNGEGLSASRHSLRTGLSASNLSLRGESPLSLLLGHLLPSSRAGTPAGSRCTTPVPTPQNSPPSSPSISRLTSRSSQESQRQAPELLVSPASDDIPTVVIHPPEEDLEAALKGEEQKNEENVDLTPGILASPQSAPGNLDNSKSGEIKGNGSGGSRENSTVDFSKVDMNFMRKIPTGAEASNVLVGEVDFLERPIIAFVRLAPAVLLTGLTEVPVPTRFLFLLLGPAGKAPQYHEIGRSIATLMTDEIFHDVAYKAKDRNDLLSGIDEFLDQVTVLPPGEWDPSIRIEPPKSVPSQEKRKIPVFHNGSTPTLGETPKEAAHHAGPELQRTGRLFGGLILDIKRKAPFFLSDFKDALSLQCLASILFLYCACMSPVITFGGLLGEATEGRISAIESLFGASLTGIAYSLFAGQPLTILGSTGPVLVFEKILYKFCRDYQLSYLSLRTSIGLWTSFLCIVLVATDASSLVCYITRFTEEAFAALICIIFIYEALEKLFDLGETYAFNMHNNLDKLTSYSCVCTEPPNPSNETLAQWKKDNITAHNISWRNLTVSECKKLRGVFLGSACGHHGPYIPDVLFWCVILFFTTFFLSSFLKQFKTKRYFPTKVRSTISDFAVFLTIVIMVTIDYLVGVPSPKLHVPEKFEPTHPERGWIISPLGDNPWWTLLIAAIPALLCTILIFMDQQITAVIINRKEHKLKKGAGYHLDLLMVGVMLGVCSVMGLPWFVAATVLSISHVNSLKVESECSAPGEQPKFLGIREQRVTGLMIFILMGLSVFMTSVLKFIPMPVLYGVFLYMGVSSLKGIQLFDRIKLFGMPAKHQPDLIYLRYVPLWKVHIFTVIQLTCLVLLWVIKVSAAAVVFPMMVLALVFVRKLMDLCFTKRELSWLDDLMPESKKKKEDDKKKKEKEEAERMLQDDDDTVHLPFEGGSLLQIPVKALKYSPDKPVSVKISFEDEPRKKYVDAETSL
UniProt P11166: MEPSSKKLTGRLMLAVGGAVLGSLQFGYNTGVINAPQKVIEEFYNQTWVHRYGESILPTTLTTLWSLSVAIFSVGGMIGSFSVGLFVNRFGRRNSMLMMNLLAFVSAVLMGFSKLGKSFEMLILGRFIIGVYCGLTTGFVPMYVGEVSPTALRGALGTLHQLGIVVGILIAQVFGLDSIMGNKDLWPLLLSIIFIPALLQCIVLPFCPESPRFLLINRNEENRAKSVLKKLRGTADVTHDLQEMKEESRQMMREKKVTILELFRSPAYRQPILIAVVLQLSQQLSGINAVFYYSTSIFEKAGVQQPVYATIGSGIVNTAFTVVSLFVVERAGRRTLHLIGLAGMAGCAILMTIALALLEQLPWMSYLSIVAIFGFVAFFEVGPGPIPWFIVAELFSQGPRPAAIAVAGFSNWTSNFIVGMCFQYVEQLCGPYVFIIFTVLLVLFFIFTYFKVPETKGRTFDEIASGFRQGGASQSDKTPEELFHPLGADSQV

[2] = compound: CC1=C(SC2=C1C(=N[C@H](C3=NN=C(N32)C)CC(=O)N)C4=CC=C(C=C4)Cl)C
How it was run: as §1

[3] = compound: CC1=C2C(=CC=C1)N=C(N(C2=O)C3=CC=CC=C3C)CN4C=NC5=C(N=CN=C54)N
How it was run: as §1

[4] = compound: Cc1sc2c(c1C)C(c1ccc(Cl)cc1)=N[C@@H](CC(=O)OC(C)(C)C)c1nnc(C)n1-2
How it was run: as §1

[5] = compound: c1ccc([C@@H]2C[C@H]2NC2CCNCC2)cc1
How it was run: as §1

Measured: log2 fold change

SLC25A26 (UniProt Q70HW3)
inactive: [1] -0.041 | [2] 0 | [3] 0.049 | [4] 0.05 | [5] 0.042

SLC48A1 (UniProt Q6P1K1)
inactive: [1] -0.005

SLC43A1 (UniProt O75387)
inactive: [1] 0.002 | [2] 0.07 | [3] 0.069 | [4] -0.022 | [5] -0.006

SLC25A23 isoform 3 (UniProt Q9BV35)
inactive: [1] 0.214 | [2] -0.02 | [3] -0.05 | [4] 0.002 | [5] 0.024

SLC66A1 (UniProt Q6ZP29)
inactive: [1] -0.171

SLC27A2 (UniProt O14975)
inactive: [1] 0.038 | [2] 0.036 | [3] 0.141 | [4] 0.011 | [5] -0.027

SLC25A20 (UniProt O43772)
inactive: [1] 0.012 | [2] 0.034 | [3] 0.042 | [4] -0.006 | [5] 0.01

SLC39A14 (UniProt Q15043)
inactive: [1] 0.024 | [2] -0.012 | [3] 0.012 | [4] 0.054 | [5] 0.019

SLC50A1 (UniProt Q9BRV3)
inactive: [1] -0.17

SLC30A9 (UniProt Q6PML9)
inactive: [1] -0.034 | [2] -0.04 | [3] 0.141 | [4] -0.027 | [5] -0.023

SLC25A15 (UniProt Q9Y619)
inactive: [1] 0.009 | [2] 0.025 | [3] 0.018 | [4] -0.01 | [5] 0.016

SLC25A31 (UniProt Q9H0C2)
inactive: [1] 0.037 | [2] 0.015 | [3] -0.006 | [4] -0.012 | [5] -0.009

SLC7A5 (UniProt Q01650)
inactive: [1] 0 | [2] 0.017 | [3] 0.019 | [4] -0.005 | [5] 0.043

SLC29A2 (UniProt Q14542)
inactive: [1] -0.07 | [2] 0 | [3] -0.008 | [4] -0.187 | [5] 0.075

SLC25A37 (UniProt Q9NYZ2)
inactive: [1] 0.079 | [2] -0.036 | [3] 0.106 | [4] 0.039 | [5] 0.026

SLC6A6 (UniProt P31641)
inactive: [1] -0.002 | [2] 0.065 | [3] 0.039 | [4] 0.018 | [5] 0.035

SLC7A11 (UniProt Q9UPY5)
inactive: [1] 0.011 | [2] 0.053 | [3] 0.127 | [4] -0.022 | [5] 0

SLC35F5 (UniProt Q8WV83)
inactive: [1] -0.001

SLC25A28 (UniProt Q96A46)
inactive: [1] -0.157

SLC25A19 (UniProt Q9HC21)
inactive: [1] 0.026 | [2] -0.011 | [3] 0.011 | [4] -0.027 | [5] 0.031

SLC36A1 (UniProt E5RG64)
inactive: [1] 0

SLC25A39 (UniProt Q9BZJ4)
inactive: [1] 0.031 | [2] -0.166 | [3] 0.149 | [4] 0.09 | [5] 0.019

SLC22A18 (UniProt Q96BI1)
inactive: [1] 0.006 | [2] 0.027 | [3] 0.106 | [4] -0.09 | [5] -0.017

SLC26A11 (UniProt I3L0N9)
inactive: [1] -0.305

SLC25A33 (UniProt Q9BSK2)
inactive: [1] 0.02 | [2] 0.015 | [3] 0.072 | [4] -0.022 | [5] -0.008

SLC35B1 isoform 2 (UniProt P78383)
inactive: [1] -0.166 | [2] -0.233 | [3] 0.146 | [4] -0.215 | [5] 0.027

SLC39A10 (UniProt Q9ULF5)
inactive: [1] 0.019 | [2] 0.073 | [3] 0.002 | [4] 0.042 | [5] 0

SLC38A5 (UniProt Q8WUX1)
inactive: [1] -0.026 | [2] 0.043 | [3] 0.019 | [4] 0.018 | [5] 0.062

SLC12A9 (UniProt Q9BXP2)
inactive: [1] 0.013 | [2] -0.002 | [3] 0.014 | [4] -0.035 | [5] 0.028

SLC25A40 (UniProt Q8TBP6)
inactive: [1] 0.035 | [2] 0.033 | [3] -0.025 | [4] -0.061 | [5] 0.002

SLC4A3 isoform 3 (UniProt P48751)
inactive: [1] -0.101

SLC35A3 isoform 2 (UniProt Q9Y2D2)
inactive: [1] 0.058

SLC66A2 (UniProt Q8N2U9)
inactive: [1] 0.029

SLC25A10 isoform 2 (UniProt Q9UBX3)
inactive: [1] -0.003 | [2] -0.012 | [3] -0.03 | [4] -0.018 | [5] 0.006

SLC25A46 (UniProt Q96AG3)
inactive: [1] 0.002 | [2] -0.004 | [3] 0.096 | [4] -0.038 | [5] -0.009

SLC36A4 (UniProt Q6YBV0)
inactive: [1] 0.111

SLC3A2 isoform 3 (UniProt P08195)
inactive: [1] 0.001 | [2] 0.041 | [3] 0.003 | [4] -0.025 | [5] -0.009

SLC2A13 (UniProt Q96QE2)
inactive: [1] -0.016 | [2] 0.065 | [3] 0.143 | [4] 0.034 | [5] -0.027

SLC29A1 isoform 2 (UniProt Q99808)
inactive: [1] 0.017 | [2] 0.03 | [3] 0.008 | [4] -0.005 | [5] 0.055

SLC25A32 (UniProt Q9H2D1)
inactive: [1] 0.049 | [2] 0.079 | [3] 0.016 | [4] -0.053 | [5] 0.059

SLC35B3 (UniProt Q9H1N7)
inactive: [1] 0.03 | [2] 0.208 | [3] 0.051 | [4] -0.071 | [5] -0.023

SLC10A4 (UniProt Q96EP9)
inactive: [1] -0.056 | [2] -0.019 | [3] 0.217 | [4] 0.081 | [5] -0.06

SLC27A4 (UniProt Q6P1M0)
inactive: [1] -0.018 | [2] 0.095 | [3] 0.037 | [4] -0.027 | [5] -0.019

SLC39A8 (UniProt Q9C0K1)
inactive: [1] -0.032 | [2] -0.111 | [3] -0.043 | [4] 0.051 | [5] -0.017

SLC35B2 (UniProt Q8TB61)
inactive: [1] 0.017 | [2] 0.024 | [3] 0.024 | [4] -0.033 | [5] 0.01

SLC25A38 (UniProt Q96DW6)
inactive: [1] 0.014 | [2] 0.034 | [3] -0.035 | [4] -0.035 | [5] 0.014

SLC25A24 (UniProt Q6NUK1)
inactive: [1] 0.022 | [2] -0.004 | [3] 0.025 | [4] -0.016 | [5] 0.033

SLC25A4 (UniProt P12235)
inactive: [1] -0.001 | [2] -0.034 | [3] 0.062 | [4] -0.049 | [5] 0.05

SLC12A4 (UniProt Q9UP95)
inactive: [1] 0 | [2] 0.04 | [3] -0.065 | [4] 0.002 | [5] 0.007

SLC20A2 (UniProt Q08357)
inactive: [1] 0.031 | [2] 0 | [3] 0.028 | [4] 0.039 | [5] 0.058

SLC7A1 (UniProt P30825)
inactive: [1] 0.013 | [2] 0.006 | [3] -0.018 | [4] 0.007 | [5] 0.082

SLC38A1 (UniProt Q9H2H9)
inactive: [1] -0.041 | [2] 0.018 | [3] -0.003 | [4] -0.049 | [5] -0.035

SLAIN2 (UniProt Q9P270)
inactive: [1] -0.016 | [2] 0.003 | [3] -0.013 | [4] 0.014 | [5] 0.04

SLC1A4 (UniProt P43007)
inactive: [1] 0.006 | [2] 0.022 | [3] 0.078 | [4] -0.015 | [5] 0.003

SLC25A16 (UniProt P16260)
inactive: [1] -0.037 | [2] 0.005 | [3] 0.118 | [4] -0.054 | [5] 0.01

SLC25A42 (UniProt Q86VD7)
inactive: [1] 0.073 | [2] 0.051 | [3] -0.019 | [4] -0.005 | [5] 0.003

SLC4A7 isoform 7 (UniProt Q9Y6M7)
inactive: [1] 0.046 | [2] 0.005 | [3] -0.003 | [4] 0.011 | [5] -0.052

SLC2A1 (UniProt P11166)
inactive: [1] 0.003 | [2] 0.031 | [3] 0.001 | [4] 0.012 | [5] 0.014

SLC39A6 (UniProt Q13433)
inactive: [1] -0.029 | [2] 0.061 | [3] 0.101 | [4] 0.059 | [5] 0.064
